The values that follow come from patent US20150272191A1, “FORMULAS COMPRISING OPTIMISED AMINO ACID PROFILES” (N.V. NUTRICIA, priority 2012, published 2015).

The subject of this series is infants. Kind of series: Indicator amino acid oxidation (IAAO) method: essential amino acid requirement (breakpoint) in formula-fed term infants, and recommended intakes calculated from it. Type of series: in vivo, human. Conditions: F13CO2 from L[1-13C]phenylalanine indicator, biphasic linear regression crossover model, infants postnatal age <28 days, methionine: diet with excess cysteine (91 mg·kg^−1·d^−1).

The structures appear in SMILES notation.

`CC(C)C[C@H](N)C(=O)O` [Leucine, leucine]: the “breakpoint (dietary requirement of the test amino acid)” value (“breakpoint” below) was 140 mg/kg/day.

Regarding `CSCC[C@H](N)C(=O)O` [Methionine, methionine], the “breakpoint” value was 38 mg/kg/day.

As to `CC(C)[C@H](N)C(=O)O` [Valine, valine], the “breakpoint” value is 110 mg/kg/day.

For the compound `NCCCC[C@H](N)C(=O)O` [Lysine, lysine], the “breakpoint” value was 130 mg/kg/day.

On to `N[C@@H](Cc1c[nH]c2ccccc12)C(=O)O` [Tryptophan, tryptophan], for which the “breakpoint” value is 15 mg/kg/day.

With `CC[C@H](C)[C@H](N)C(=O)O` [Isoleucine, isoleucine], the “breakpoint” value was 105 mg/kg/day.

In the case of `C[C@@H](O)[C@H](N)C(=O)O` [Threonine, threonine], the “breakpoint” value was 68 mg/kg/day.
